At least one compound was matched to its structure with a doubt left.
Tested on: precocious branches of Eucalyptus camaldulensis
Assay: Transgenic calli formation after infection induction treatment of precocious branches with NAA, then Agrobacterium tumefaciens EHA101/pIG121-Hm infection
Assay type: cell-based
Details: 30 days, intron GUS expression
Method: Culturing was performed for 7 to 14 days at a temperature of 26 to 28° C. under dark conditions. After cutting the precocious branches subjected to the infection induction treatment to segments of 2 to 10 mm length with a knife, the segments were immersed in the culture medium of Agrobacterium tumefaciens strain EHA101/pIG121-Hm prepared according to the method described above. After wiping off the culture medium adhered to the segments of the precocious branches with filter paper, the sections of the precocious branches were embedded in an infection medium containing 2 mg/l NAA, 0.2 mg/l 4-PU, 1 mM galactose, 10 μM acetosyringone, 3% sucrose and 0.02% gellan gum in B5 basal medium, followed by stationary-culturing for 2 days at a temperature of 26° C. and under dark conditions to infect the precocious branches with Agrobacterium tumefaciens. With the exception of inducing precocious branches from three Eucalyptus camaldulensis plants, and performing infection induction treatment with the concentration of NAA in the precocious branch infection induction medium at 0, 0.02, 0.2 or 2.0 mg/l, the precocious branches were infected with Agrobacterium tumefaciens strain EHA101/pIG121-Hm in the same manner as described in Example 1, and the number of transgenic calli that express intron GUS gene was investigated 30 days after the start of the infection induction treatment. For plant 1, the case of testing precocious branches of the untreated group on which infection treatment was not performed, transformation efficiency of 23.1% was obtained. […] In addition, in the untreated group of plant 2 as well in which infection was difficult, transgenic calli were observed following infection induction by NAA. One the basis of these findings, infection induction treatment of precocious branches was clearly shown to be effective in improving transformation efficiency.

O=C(O)Cc1cccc2ccccc12 [NAA, naphthaleneacetic acid]
No. of transgenic calli/No. of tested segments (plant No. 1, NAA 0.02 mg/l in infection induction medium): 70/96
No. of transgenic calli/No. of tested segments (plant No. 1, NAA 0.2 mg/l in infection induction medium): 48/75
No. of transgenic calli/No. of tested segments (plant No. 1, NAA 2.0 mg/l in infection induction medium): 44/89
No. of transgenic calli/No. of tested segments (plant No. 2, NAA 0.02 mg/l in infection induction medium): 1/13
No. of transgenic calli/No. of tested segments (plant No. 2, NAA 0.2 mg/l in infection induction medium): 5/16
No. of transgenic calli/No. of tested segments (plant No. 2, NAA 2.0 mg/l in infection induction medium): 3/16
No. of transgenic calli/No. of tested segments (plant No. 3, NAA 0.02 mg/l in infection induction medium): 24/35
No. of transgenic calli/No. of tested segments (plant No. 3, NAA 0.2 mg/l in infection induction medium): 16/42
No. of transgenic calli/No. of tested segments (plant No. 3, NAA 2.0 mg/l in infection induction medium): 24/40

— patent publication US6563024B1, “Process for transformation of mature trees of Eucalyptus plants” (OJI Paper Co., Ltd., priority 1999, dated 2003)
